Assay results from PMC6508934, “Structural basis for mammalian nucleotide sugar transport” (eLife, 2019).
No constants are given. Whether binding was seen depends on the method and setting.

Key:
[1] = molecular target: T1, human CMP-sialic acid transporter (human CST) (human), P78382; test: cross-linking; DSS or BS3 in increasing amounts added to 1 mg/ml purified hCST in Buffer A (50 mM HEPES pH 7.5, 150 mM NaCl, 0.1% DDM), 30 min at room temperature, quenched with Tris; 12% SDS-PAGE, Coomassie; both purified; conditions: remark: other sources report otherwise
T1 chain: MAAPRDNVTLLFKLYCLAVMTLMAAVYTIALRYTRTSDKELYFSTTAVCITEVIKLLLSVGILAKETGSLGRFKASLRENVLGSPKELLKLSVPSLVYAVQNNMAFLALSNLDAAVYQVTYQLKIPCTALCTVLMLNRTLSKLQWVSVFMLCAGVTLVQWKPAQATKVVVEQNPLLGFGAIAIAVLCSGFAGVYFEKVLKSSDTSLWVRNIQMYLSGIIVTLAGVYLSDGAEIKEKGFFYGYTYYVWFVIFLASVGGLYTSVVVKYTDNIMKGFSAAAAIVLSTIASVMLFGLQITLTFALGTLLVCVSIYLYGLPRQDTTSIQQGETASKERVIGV

[2] = molecular target: T1, human CMP-sialic acid transporter …; test: SEC-MALS; SEC-UV/LS/RI, 'three detector' method; 250 ul purified hCST at 0.8 mg/ml on Superdex 200 in Buffer B (25 mM HEPES pH 7.5, 150 mM NaCl, 0.1% DDM, 5 mM DTT, 1 mM EDTA); protein-only mass 38 kDa against 37 kDa theoretical; both purified; conditions: remark: other sources report otherwise

B1: human CMP-sialic acid transporter (human CST), P78382 1-337 (protein)
chain: T1 chain
With B1 the binding [1] was “no binding (tested: 1 mg/ml)” and the binding [2] was “no binding (tested: 0.8 mg/ml)”.
